From PMC9481933 come the findings set out here.

Protein sequences, listed by entry. Tags and fused reporters are not part of them.
UniProt P05198: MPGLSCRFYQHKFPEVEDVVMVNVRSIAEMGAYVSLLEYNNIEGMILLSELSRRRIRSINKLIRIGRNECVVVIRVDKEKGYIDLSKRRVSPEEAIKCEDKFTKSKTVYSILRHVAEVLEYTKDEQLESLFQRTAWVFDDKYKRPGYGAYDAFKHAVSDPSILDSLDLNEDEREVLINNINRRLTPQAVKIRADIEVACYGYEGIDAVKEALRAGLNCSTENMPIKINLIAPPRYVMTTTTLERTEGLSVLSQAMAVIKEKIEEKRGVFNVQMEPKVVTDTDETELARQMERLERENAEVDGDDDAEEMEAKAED
UniProt Q9Y262: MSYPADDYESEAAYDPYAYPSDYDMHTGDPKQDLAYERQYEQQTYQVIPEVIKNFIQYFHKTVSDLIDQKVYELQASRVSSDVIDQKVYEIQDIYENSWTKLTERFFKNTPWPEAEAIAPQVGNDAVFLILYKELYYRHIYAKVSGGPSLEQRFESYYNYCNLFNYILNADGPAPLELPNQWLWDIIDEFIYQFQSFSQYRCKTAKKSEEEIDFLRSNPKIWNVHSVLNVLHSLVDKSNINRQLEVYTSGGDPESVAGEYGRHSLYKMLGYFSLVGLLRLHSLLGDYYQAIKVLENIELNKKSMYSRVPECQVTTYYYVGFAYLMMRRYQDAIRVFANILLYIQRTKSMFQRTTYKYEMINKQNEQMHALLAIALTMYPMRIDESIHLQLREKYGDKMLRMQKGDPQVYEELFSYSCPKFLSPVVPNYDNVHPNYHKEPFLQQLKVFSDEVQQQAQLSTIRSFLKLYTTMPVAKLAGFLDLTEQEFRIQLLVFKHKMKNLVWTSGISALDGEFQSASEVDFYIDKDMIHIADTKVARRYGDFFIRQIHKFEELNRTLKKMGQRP
UniProt Q14318: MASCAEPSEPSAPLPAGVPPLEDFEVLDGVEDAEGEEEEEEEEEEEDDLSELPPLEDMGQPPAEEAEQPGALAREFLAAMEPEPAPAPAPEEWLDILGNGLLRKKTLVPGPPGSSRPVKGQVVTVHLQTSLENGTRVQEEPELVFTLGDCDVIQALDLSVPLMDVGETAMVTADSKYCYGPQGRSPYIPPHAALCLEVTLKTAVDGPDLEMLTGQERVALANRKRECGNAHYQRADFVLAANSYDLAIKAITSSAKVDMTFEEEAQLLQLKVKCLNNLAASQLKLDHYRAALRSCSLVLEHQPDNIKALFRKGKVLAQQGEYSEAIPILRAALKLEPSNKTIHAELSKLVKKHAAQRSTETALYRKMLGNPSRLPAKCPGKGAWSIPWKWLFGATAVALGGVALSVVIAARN
UniProt P08238: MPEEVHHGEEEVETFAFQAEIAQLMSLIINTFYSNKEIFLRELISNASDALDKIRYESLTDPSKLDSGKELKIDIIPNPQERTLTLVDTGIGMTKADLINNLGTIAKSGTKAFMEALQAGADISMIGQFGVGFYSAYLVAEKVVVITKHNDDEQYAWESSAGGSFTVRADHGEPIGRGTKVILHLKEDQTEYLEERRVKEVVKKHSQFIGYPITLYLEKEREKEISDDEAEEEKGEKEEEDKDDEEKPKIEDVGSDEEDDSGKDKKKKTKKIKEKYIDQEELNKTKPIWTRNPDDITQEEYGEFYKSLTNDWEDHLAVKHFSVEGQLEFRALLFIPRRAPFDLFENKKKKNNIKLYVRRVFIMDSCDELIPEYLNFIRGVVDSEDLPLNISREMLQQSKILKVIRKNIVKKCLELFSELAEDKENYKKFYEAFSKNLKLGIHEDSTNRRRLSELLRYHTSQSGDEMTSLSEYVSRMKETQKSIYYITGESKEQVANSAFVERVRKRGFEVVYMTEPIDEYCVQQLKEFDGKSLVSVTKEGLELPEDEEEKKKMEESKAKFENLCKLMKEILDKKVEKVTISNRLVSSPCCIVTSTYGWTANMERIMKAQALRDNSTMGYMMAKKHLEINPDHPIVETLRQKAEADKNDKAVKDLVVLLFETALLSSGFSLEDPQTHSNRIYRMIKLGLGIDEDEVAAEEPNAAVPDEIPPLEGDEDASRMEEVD
UniProt P46821: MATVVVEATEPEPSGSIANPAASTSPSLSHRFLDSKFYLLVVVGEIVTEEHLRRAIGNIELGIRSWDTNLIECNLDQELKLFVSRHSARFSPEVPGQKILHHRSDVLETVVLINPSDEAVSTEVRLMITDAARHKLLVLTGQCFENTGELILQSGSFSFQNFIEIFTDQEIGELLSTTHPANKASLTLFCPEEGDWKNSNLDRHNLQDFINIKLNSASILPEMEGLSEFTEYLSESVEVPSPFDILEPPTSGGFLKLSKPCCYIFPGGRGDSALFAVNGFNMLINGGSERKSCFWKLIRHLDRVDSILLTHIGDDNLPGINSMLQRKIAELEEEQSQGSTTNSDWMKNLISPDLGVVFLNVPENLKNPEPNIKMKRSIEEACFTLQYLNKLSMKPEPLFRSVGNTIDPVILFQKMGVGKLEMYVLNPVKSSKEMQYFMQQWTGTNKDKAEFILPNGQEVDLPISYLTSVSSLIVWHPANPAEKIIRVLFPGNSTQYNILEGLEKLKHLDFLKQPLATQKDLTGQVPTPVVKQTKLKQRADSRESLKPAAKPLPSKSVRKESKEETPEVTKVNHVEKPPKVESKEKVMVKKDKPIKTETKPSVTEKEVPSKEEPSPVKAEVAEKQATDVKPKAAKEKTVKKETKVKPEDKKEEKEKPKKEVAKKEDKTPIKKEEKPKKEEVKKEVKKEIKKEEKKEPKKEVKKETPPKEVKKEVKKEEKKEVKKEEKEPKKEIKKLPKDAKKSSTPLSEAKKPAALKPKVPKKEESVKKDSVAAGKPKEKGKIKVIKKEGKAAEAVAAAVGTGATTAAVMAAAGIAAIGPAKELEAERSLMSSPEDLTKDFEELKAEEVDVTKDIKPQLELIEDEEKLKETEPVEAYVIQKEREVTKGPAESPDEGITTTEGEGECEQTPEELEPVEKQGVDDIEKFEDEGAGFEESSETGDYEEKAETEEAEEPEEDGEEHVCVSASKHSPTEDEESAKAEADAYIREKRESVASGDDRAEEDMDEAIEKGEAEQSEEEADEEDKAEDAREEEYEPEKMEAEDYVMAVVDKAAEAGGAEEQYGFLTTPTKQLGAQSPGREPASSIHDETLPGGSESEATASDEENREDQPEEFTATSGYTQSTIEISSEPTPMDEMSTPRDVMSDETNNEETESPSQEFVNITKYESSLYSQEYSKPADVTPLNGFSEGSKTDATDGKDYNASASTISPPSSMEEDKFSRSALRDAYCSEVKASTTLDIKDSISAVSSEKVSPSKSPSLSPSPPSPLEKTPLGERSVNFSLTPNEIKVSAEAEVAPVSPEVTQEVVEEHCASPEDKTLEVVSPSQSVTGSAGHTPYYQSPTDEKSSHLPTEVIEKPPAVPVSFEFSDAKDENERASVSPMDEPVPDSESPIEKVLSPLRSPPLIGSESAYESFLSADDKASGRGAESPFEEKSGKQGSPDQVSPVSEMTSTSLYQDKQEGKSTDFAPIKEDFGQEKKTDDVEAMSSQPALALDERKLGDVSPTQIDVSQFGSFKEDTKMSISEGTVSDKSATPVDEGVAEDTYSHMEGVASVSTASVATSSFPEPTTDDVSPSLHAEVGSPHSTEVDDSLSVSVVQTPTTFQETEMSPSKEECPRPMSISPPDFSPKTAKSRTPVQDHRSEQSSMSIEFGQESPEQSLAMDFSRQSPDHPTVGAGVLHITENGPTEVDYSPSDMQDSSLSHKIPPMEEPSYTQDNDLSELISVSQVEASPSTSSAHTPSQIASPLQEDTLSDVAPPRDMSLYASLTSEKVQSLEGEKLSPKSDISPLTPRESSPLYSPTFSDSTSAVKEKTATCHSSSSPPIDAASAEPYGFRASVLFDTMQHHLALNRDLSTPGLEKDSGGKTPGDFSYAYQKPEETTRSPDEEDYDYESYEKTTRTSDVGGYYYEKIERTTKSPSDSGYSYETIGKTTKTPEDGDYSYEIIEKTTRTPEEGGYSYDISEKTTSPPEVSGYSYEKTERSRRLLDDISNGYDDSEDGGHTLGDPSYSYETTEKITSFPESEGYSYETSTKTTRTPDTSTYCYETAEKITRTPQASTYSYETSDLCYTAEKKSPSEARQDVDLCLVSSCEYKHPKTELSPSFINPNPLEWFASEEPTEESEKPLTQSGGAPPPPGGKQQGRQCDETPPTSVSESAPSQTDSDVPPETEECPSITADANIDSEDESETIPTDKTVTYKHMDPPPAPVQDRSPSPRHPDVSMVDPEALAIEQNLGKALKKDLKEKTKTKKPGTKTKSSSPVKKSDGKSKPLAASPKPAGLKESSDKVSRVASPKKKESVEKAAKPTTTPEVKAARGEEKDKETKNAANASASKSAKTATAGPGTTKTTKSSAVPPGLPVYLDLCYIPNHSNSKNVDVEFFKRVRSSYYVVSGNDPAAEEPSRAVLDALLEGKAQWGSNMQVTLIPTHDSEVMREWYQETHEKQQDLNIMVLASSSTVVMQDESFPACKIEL
UniProt P31350: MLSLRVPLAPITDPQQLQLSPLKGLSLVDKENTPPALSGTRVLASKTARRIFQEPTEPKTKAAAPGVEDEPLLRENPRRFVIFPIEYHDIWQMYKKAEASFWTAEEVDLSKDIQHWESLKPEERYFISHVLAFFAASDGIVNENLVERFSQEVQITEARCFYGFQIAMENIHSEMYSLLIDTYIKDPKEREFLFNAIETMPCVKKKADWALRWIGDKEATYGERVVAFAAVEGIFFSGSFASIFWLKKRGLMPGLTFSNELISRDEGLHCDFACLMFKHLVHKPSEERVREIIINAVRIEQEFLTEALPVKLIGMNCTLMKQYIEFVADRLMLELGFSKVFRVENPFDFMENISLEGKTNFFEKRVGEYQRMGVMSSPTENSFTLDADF
UniProt P63208: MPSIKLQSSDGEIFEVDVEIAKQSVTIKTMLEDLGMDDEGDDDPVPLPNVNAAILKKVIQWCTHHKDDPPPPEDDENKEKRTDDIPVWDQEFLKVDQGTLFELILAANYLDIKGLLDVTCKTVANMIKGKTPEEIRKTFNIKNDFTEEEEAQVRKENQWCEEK
UniProt Q9WUD1: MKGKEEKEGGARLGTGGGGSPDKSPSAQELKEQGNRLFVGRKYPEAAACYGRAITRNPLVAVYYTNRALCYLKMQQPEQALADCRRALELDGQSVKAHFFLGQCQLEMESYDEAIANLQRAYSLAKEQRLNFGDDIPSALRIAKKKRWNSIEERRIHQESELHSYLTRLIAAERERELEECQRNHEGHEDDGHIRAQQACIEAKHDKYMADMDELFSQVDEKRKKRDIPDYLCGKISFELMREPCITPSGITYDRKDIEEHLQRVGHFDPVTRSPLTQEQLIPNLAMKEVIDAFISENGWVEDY
UniProt Q9BVA1: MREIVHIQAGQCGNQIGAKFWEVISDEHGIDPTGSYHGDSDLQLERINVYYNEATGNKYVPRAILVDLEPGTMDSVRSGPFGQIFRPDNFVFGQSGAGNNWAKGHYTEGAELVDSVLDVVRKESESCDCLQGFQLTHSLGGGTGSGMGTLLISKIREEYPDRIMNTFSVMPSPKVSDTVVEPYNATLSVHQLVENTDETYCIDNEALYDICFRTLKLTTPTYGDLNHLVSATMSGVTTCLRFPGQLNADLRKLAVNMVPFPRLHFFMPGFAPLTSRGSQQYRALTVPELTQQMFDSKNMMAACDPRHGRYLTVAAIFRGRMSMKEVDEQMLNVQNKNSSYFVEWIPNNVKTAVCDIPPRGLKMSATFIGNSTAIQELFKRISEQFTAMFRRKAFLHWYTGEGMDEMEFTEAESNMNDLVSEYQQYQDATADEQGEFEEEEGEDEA
UniProt P68372: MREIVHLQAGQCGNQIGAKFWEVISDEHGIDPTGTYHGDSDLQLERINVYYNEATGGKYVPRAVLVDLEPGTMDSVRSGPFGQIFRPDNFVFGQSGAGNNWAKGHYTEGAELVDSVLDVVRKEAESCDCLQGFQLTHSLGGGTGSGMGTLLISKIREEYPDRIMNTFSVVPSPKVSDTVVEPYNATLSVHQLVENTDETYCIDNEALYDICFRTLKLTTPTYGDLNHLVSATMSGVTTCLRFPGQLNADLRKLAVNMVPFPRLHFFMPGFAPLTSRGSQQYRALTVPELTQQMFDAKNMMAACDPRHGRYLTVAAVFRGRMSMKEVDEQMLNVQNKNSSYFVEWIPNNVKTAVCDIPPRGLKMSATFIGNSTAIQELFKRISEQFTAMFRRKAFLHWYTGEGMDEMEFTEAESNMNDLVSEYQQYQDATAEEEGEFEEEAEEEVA

The target of assay [1] is T1, myc-APEX2-Cyclin-F, in SH-SY5Y cells (UniProt P41002).
T1 sequence: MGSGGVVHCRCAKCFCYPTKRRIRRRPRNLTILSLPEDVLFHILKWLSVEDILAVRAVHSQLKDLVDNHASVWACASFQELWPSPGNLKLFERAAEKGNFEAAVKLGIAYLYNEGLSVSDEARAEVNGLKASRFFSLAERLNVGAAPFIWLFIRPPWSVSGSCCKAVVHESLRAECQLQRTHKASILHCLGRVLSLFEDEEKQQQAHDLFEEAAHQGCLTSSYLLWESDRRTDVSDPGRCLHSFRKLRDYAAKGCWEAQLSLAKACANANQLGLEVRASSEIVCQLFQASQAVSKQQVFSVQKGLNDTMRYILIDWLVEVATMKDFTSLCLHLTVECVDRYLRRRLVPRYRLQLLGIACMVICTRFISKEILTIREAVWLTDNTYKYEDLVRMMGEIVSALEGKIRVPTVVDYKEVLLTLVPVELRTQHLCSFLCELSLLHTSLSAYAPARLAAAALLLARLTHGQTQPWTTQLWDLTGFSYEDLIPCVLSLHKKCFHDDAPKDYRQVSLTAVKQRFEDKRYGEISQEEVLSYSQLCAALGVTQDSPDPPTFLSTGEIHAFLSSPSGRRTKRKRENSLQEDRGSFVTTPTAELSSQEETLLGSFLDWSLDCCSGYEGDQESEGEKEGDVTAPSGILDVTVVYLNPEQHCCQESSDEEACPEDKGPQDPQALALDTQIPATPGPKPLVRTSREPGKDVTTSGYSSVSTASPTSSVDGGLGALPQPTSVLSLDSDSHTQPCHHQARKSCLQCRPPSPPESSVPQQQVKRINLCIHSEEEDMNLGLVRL
In words: proximity labelling; myc-APEX2-CCNF stably expressed in N2a or SH-SY5Y cells; 500 uM biotin-phenol 30 min, 1 mM H2O2 pulse 1 min; streptavidin pull-down, MS; controls: omission of biotin-phenol or APEX2-TBC1D7; triplicates.

For assay [2], the target named is T2, HA-FLAG-tagged Cyclin-F (wild type), in SH-SY5Y cells (UniProt P41002).
T2 sequence: T1 sequence
As to the kind of experiment: affinity purification with mass spectrometry; HA-FLAG-CCNF stably expressed in N2a or SH-SY5Y cells; anti-HA affinity resin, elution with HA peptide, trypsin, MS; control HA-FLAG-TBC1D7 IP; quadruplicates.

Assay [3] concerns the target T3, myc-APEX2-Cyclin-F, in N2a cells (UniProt P41002).
T3 sequence: T1 sequence
In words: proximity labelling; myc-APEX2-CCNF stably expressed in N2a or SH-SY5Y cells; 500 uM biotin-phenol 30 min, 1 mM H2O2 pulse 1 min; streptavidin pull-down, MS; controls: omission of biotin-phenol or APEX2-TBC1D7; triplicates.

Assay [4] addresses T4, HA-FLAG-tagged Cyclin-F (wild type), in N2a cells (UniProt P41002).
T4 sequence: T1 sequence
In words: affinity purification with mass spectrometry; HA-FLAG-CCNF stably expressed in N2a or SH-SY5Y cells; anti-HA affinity resin, elution with HA peptide, trypsin, MS; control HA-FLAG-TBC1D7 IP; quadruplicates.

No constants are given. Whether binding was seen depends on the method and setting. In cells and extracts the contact can be indirect. A yes stands for co-enrichment or nearness to the bait. Other partners may have been found. Where a sequence is shown, tags or fusion partners need not be part of it.

Consider “EIF2S1 (endogenous) (from UniProt P05198 1-315)”, for which the binding result in assay [1] was “binds”.
Same read-out and setting: the value for “EIF3L (endogenous) (from UniProt Q9Y262 1-564)” was “binds”.
On to “FKBP8 (endogenous) (from UniProt Q14318 1-412)”, for which the binding result in assay [2] was “binds”.
As to “HSP90AB1 (endogenous) (from UniProt P08238 1-724)”, the binding result in assay [2] and in assay [1] was “binds” throughout.
Consider “MAP1B (endogenous) (from UniProt P46821 1-2468)”, for which, in assay [1], the binding entry is “binds”.
For the molecule “Myh10 (endogenous) (from UniProt Q61879 1-1976)”, the binding result in assay [3] is recorded as “binds”.
Regarding “RRM2 (endogenous) (from UniProt P31350 1-389)”, the binding entry in assay [2] and in assay [1] was “binds” throughout.
As for “SKP1 (endogenous) (from UniProt P63208 1-163)”, the binding entry in assay [2] and in assay [1] was “binds” each time.
“STIP1 (endogenous) (from UniProt P31948 1-543)”: the binding result in assay [1] is given as “binds”.
For the molecule “Stub1 (endogenous, mouse) (from UniProt Q9WUD1 1-304)”, the binding entry in assay [4] was “binds”.
Turning to “TUBB2B (endogenous) (from UniProt Q9BVA1 1-445)”, the binding result in assay [2] is recorded as “binds”.
For the molecule “Tubb4b (endogenous) (from UniProt P68372 1-445)”, the binding result in assay [4] is recorded as “binds”.
Regarding “VCP (endogenous) (from UniProt P55072 1-806)”, the binding entry in assay [1] is “binds”.
“Vcl (endogenous) (from UniProt Q64727 1-1066)”: the binding entry in assay [3] is “binds”.

B1: Kif24 (endogenous) (protein, UniProt Q6NWW5 1-1356)
chain: MASWLYECLCEAELAQYYPHFTALGLQKIDELAKVTMKDYSRLGVHDMNDRKRLFQLIKIIKIMQEEDKALGIPEHPLQASSLYTKPREFRSGPRRQLHFDSPSASKDKMANNETGSLSNFSVDEQKSTYLKVLEHMLPDDSQCQTKIRAPDASAADASMQTETNAPLFSSNYFSPQLGNCDIPVIQRVSHVSGYNYGIPHSCVRQITSENPWTEMEKIRVCVRKRPLGVREVRRGEVNVITVEDKETLLVHEKKEAVDLTQYILQHVFYFDEVFGEACSNQDVYLKTAHPLIQHIFNGGSATCFAYGQTGAGKTYTMIGTHQNPGLYALAAKDIFRQLKVSQSRRNLFVWISFYEIYCGQLYDLLNRRKRLFAREDSKHVVQIAGLRELQVDSVELLLQVILKGSKERSTGATGVNADSSRSHAIIQIQIKDSAKRTFGRISFIDLAGSERAADARDSDRQTKMEGAEINQSLLALKECIRALDQEHTHTPFRQSKLTQVLKDSFIGNAKTCMIANISPSHIATEHTLNTLRYADRVKELKKGVKCCASATSQNQTSANASPKRIQSSPVTLPGDKCSPKKVKLGLQQSLTVAPGPTKVKAHPLASHVPNVPFTSGPKTPGKKSSSRGSPTPEWDMKASPRKGTTRSGHSIKKGAESAPLCSEKSQIGSKIAVGWEGRASDPGEGLLRVRLPTRGKKVQPVQPVQKQLLSRPRLLANSHHLEATQDSKVGTPAGLAPEAWTNPILQQKEREEHLRFYHQQFQQPPLLKQKLNYQPLQRLLCQHRPSEGRLQSETGFPLHSNPENRDGAQAEDLDDSDFSEDSFSHGSSQPAMKQGSTALERSGSSFFLHQDREHSPEEQAAERQQCLLFSSETDGSKKRPADSWVYSRDPIISHRRGALSQSHSPSMVCPDWSKEEDSASSGPSPKDNRAQKPSSSQVDFVHHQKPGEAQVSDIRLEAFTSEVPEQAEGSLSSPSPENGLSFPLSHVAVSGSPDQRDRVCTPLREVSENRVTHTPGRVNSSTPFQEDSGEQIQMCSANASGLMAPLTMSLLETPCHEDLSSLEQIAQDGAGYGFMAEIVGGPAAGHTVPSYDQEAALPVSSATECLWLSSSPPDNRPSGDLPALSPSPIHQHSPDKLPGREAYQTRRPILLPENHMGSKLYDDRAEETELGGSLTFPRKPSSNIHAGVPYSTPFLTSCTGSSNGVGRPWAQERKHPTGVSCQELVSSTDSNKPHYNEDIAWLRHRPISRCLDSDSPVVPSCSSKALRTYCPLTPEQAQQVIIRAHKEQLDEMAELDLKEETLMTQMDSNDFEDFVTQLDEIMALKSRCIQSLRSQLQLYLTSHRPAAAPERTVVS
For the molecule B1, the binding entry in assay [4] was “binds”.

B2: DNAJC7 (endogenous, human) (protein, UniProt Q99615 1-494)
chain: MAAAAECDVVMAATEPELLDDQEAKREAETFKEQGNAYYAKKDYNEAYNYYTKAIDMCPKNASYYGNRAATLMMLGRFREALGDAQQSVRLDDSFVRGHLREGKCHLSLGNAMAACRSFQRALELDHKNAQAQQEFKNANAVMEYEKIAETDFEKRDFRKVVFCMDRALEFAPACHRFKILKAECLAMLGRYPEAQSVASDILRMDSTNADALYVRGLCLYYEDCIEKAVQFFVQALRMAPDHEKACIACRNAKALKAKKEDGNKAFKEGNYKLAYELYTEALGIDPNNIKTNAKLYCNRGTVNSKLRKLDDAIEDCTNAVKLDDTYIKAYLRRAQCYMDTEQYEEAVRDYEKVYQTEKTKEHKQLLKNAQLELKKSKRKDYYKILGVDKNASEDEIKKAYRKRALMHHPDRHSGASAEVQKEEEKKFKEVGEAFTILSDPKKKTRYDSGQDLDEEGMNMGDFDPNNIFKAFFGGPGGFSFEASGPGNFFFQFG
Take B2: in assay [2], the binding result is reported as “binds”.

B3: DNAJC18 (endogenous) (protein, UniProt Q9H819 1-358)
chain: MAATLGSGERWTEAYIDAVRRNKYPEDTPPESHDPCGCCNCMKAQKEKKSENEWTQTRQGEGNSTYSEEQLLGVQRIKKCRNYYEILGVSRDASDEELKKAYRKLALKFHPDKNCAPGATDAFKAIGNAFAVLSNPDKRLRYDEYGDEQVTFTAPRARPYNYYRDFEADITPEELFNVFFGGHFPTGNIHMFSNVTDDTYYYRRRHRHERTQTQKEEEEEKPQTTYSAFIQLLPVLVIVIISVITQLLATNPPYSLFYKSTLGYTISRETQNLQVPYFVDKNFDKAYRGASLHDLEKTIEKDYIDYIQTSCWKEKQQKSELTNLAGLYRDERLKQKAESLKLENCEKLSKLIGLRRGG
With B3, the binding entry in assay [2] is recorded as “binds”.

B4: Dnajb12 (endogenous, mouse) (protein, UniProt Q9QYI4 1-376)
chain: MESNKDEAERCISIALKAIQSNQPERALRFLEKAQRLYPTPRVSALIESLNQKPQSTGDHPQPTDTTHTTTKKAGGTETPSANGEAGGGESAKGYTSEQVAAVKRVKQCKDYYEILGVSRSASDEDLKKAYRKLALKFHPDKNHAPGATEAFKAIGTAYAVLSNPEKRKQYDQFGDDKSQAARHGHSHGDFHRGFEADISPEDLFNMFFGGGFPSSNVHVYSNGRMRYTYQQRQDRRDNQGDGGLGVFVQLMPILILILVSALSQLMVSSPPYSLSPRPSVGHIHKRVTDHLNVAYYVADTFSEEYTGSSLKTVERNVEDDYIANLRNNCWKEKQQKEGLLYRARYFGDTDMYHRAQKMGTPSCNRLSEVQASLHG
Turning to B4, the binding entry in assay [4] is recorded as “binds”.

B5: Dnajc7 (endogenous, mouse) (protein, UniProt Q9QYI3 1-494)
chain: MAATAECDVVMAATEPELLEDEDAKREAESFKEQGNAYYAKKDYNEAYNYYTKAIDMCPNNASYYGNRAATLMMLGRFREALGDAQQSVRLDDSFVRGHLREGKCHLSLGNAMAACRSFQRALELDHKNAQAQQEFKNANAVMEYEKIAEVDFEKRDFRKVVFCMDRALEFAPACHRFKILKAECLAMLGRYPEAQFVASDILRMDSTNADALYVRGLCLYYEDCIEKAVQFFVQALRMAPDHEKACVACRNAKALKAKKEDGNKAFKEGNYKLAYELYTEALGIDPNNIKTNAKLYCNRGTVNSKLRQLEDAIEDCTNAVKLDDTYIKAYLRRAQCYMDTEQFEEAVRDYEKVYQTEKTKEHKQLLKNAQLELKKSKRKDYYKILGVDKNASEDEIKKAYRKRALMHHPDRHSGASAEVQKEEEKKFKEVGEAFTILSDPKKKTRYDSGQDLDEEGMNMGDFDANNIFKAFFGGPGGFSFEASGPGNFYFQFG
In the case of B5, the binding entry in assay [4] was “binds”.

B6: CDC6 (endogenous) (protein, UniProt Q99741 1-560)
chain: MPQTRSQAQATISFPKRKLSRALNKAKNSSDAKLEPTNVQTVTCSPRVKALPLSPRKRLGDDNLCNTPHLPPCSPPKQGKKENGPPHSHTLKGRRLVFDNQLTIKSPSKRELAKVHQNKILSSVRKSQEITTNSEQRCPLKKESACVRLFKQEGTCYQQAKLVLNTAVPDRLPAREREMDVIRNFLREHICGKKAGSLYLSGAPGTGKTACLSRILQDLKKELKGFKTIMLNCMSLRTAQAVFPAIAQEICQEEVSRPAGKDMMRKLEKHMTAEKGPMIVLVLDEMDQLDSKGQDVLYTLFEWPWLSNSHLVLIGIANTLDLTDRILPRLQAREKCKPQLLNFPPYTRNQIVTILQDRLNQVSRDQVLDNAAVQFCARKVSAVSGDVRKALDVCRRAIEIVESDVKSQTILKPLSECKSPSEPLIPKRVGLIHISQVISEVDGNRMTLSQEGAQDSFPLQQKILVCSLMLLIRQLKIKEVTLGKLYEAYSKVCRKQQVAAVDQSECLSLSGLLEARGILGLKRNKETRLTKVFFKIEEKEIEHALKDKALIGNILATGLP
B6: the binding result in assay [2] and in assay [1] was “binds” each time.
